According to patent US20140325692, “BLUE-LIGHT INDUCIBLE SYSTEM FOR GENE EXPRESSION” (BOARD OF REGENTS, THE UNIVERSITY OF TEXAS SYSTEM, published 2014):
Construct, isoform or probe ends are uncertain for at least one entry. Negatives hold for the conditions tested. Where a protein sequence is shown, tags need not be part of it.

Biological target: T1, EL222 (14-222) wild type (Erythrobacter litoralis) (UniProt Q2NB98)
T1 sequence: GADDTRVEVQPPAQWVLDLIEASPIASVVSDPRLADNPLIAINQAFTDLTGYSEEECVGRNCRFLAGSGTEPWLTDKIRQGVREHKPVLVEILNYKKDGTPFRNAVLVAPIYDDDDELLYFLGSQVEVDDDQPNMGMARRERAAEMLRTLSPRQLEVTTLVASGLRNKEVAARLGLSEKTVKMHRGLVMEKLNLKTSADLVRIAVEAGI
Test: EMSA
Conditions: light; contains half of motif; purified recombinant protein; protein details: His6-Gβ1 (pHis6-Gβ1-Parallel1); label: 5'-32P; variant of Clone-1

Sequence: TCTACGTTATAGGTAGCCTT (double strand) [C1-1]
- binding result: no binding

Sequence: TTTAGTCCATGCTGATTCGT (double strand) [C1-3]
- binding result: no binding
